At least one compound was matched to its structure with a doubt left. Peptide text beside a SMILES is read from it.
Biological target: T1, human CTSK (Homo sapiens, UniProt P43235)
T1 construct: purchased Sigma-Aldrich 219461-25UG
T1 sequence (P43235 115-329): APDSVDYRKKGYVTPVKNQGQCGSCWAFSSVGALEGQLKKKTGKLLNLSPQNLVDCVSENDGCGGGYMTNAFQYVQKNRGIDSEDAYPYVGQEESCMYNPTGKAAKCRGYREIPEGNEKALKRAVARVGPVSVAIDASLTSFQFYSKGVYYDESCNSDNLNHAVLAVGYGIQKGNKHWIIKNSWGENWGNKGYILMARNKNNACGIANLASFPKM
Assay: FRET assay cathepsin K
Assay type: biochemical
Conditions: FRET assay on CTSK, dose-response, n=3 (Fig 2g)

CC[C@H](C)[C@H](NC(=O)[C@@H](NC(=O)/C=C/CNC(=O)[C@H](CC(C)C)NC(=O)[C@H](CCCNC(=N)N)NC(=O)[C@H](CCCNC(=N)N)NC(=O)[C@@H](N)CCCCN)C(C)C)C(=O)N[C@@H](CCCNC(=N)N)C(N)=O [NNPI-F17, KRRL(Y)VIR] (HELM PEPTIDE1{K.R.R.L.[O=C(/C=C/CN[*:1])[*:2]].V.I.R.[am]}$$$$V2.0; N-terminus and C-terminus assumed)
IC50: 2.7 nM

— patent publication EP4603504A1, “NOVEL CATHEPSIN K AND L INHIBITORS” (ECOLE POLYTECHNIQUE FEDERALE DE LAUSANNE (EPFL), priority 2024, dated 2025)
